The text below walks through data of PubChem BioAssay AID2685 (National Center for Advancing Translational Sciences (NCATS), 2010).

This is one part of the list. The main result of the screen is listed elsewhere. These columns were measured beside it and carry no call. Most of these compounds were active or inconclusive in the main read-out, so they are no random draw. Potencies come from curve fits of mixed quality, noted in brackets.

This assay in a line: qHTS Assay for Lipid Storage Modulators in Drosophila S3 Cells.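 On cell number change: cells counted by Cell Tracker Red CMTPX staining in the red channel.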 As to conditions: BODIPY lipid droplet fluorescence, 18-24 h; for cell number change: measured here: cell count max response, cells fed with added oleic acid. The method, boiled down: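 Drosophila S3 cells loaded with oleic acid (400 uM, as added) and compounds at several concentrations; lipid droplets imaged by 488-nm laser-scanning cytometry, 500–530 nm intensity and object ratio to cell channel. Percent activity normalized to 20 uM Triacsin C.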

The mark [1] stands for this setting: measured here: cell number channel AC50, cells fed with added oleic acid.
[2] abbreviates: measured here: lipid fluorescence (Fed channel) AC50, cells fed with added oleic acid.

`O=C1CCCN1c1ccc(S(=O)(=O)N2CCN(c3ccccn3)CC2)cc1`: the AC50 under setting [1] was 0.82 µM [rising, full curve] and the AC50 under setting [2] was 1.84 µM [rising, partial curve].
Regarding `O=C(CCc1nnc2n(Cc3ccc(Cl)cc3)c(=O)c3ccccc3n12)NCCN1CCCC1`, the cell number change was 1.15%.
On to `CC(=O)OC1=C(C#N)Cn2ccc3cccc1c32`, for which the AC50 is, setting by setting: under setting [1], 1.3 µM [falling, full curve]; under setting [2], 6.51 µM [rising, single point].
Take `CC1CCCN(C(=O)C(C)Sc2nc(-c3ccccc3)cc(C(F)(F)F)n2)C1` (centres undefined): the cell number change was -49.5%. The AC50 under setting [2] was 3.26 µM [rising, partial curve].
`CCCSc1nnc2[nH]c(=O)cc(N)n12`: the cell number change is 22.1%. Further, under setting [2], the AC50 is 8.2 µM [rising, partial curve].
Take `O=C(OCC(=O)N1CCOCC1)c1cc(S(=O)(=O)N2CCOCC2)c(Cl)cc1Cl`: the cell number change was -51.6%. Also, under setting [1], the AC50 was 0.231 µM [falling, full curve].
Regarding `Cc1ccc(C)n1-c1ccc(NC(=O)c2ccccc2)cc1`, the cell number change stood at 16.5%. The AC50 under setting [2] was 14.6 µM [rising, single point].
Regarding `CC(CCN1C(N(C)C)=NC[C@@H]1C)c1ccccc1` (some centres undefined), the cell number change is 12.4%.
Consider `O=C(O)c1ccc2c(c1)C(=O)N([C@H](Cc1cccc3ccccc13)C(=O)O)C2=O`, for which the cell number change is -1.35%. Also, the AC50 under setting [2] was 18.4 µM [rising, partial curve].
Turning to `CCOC(=O)Cc1csc(SCC(=O)NC2CCCC2)n1`, the cell number change was -33.7%. Further, the AC50 under setting [1] was 0.103 µM [falling, full curve, poor fit].
On to `Cc1ccc(CS(=O)Cc2ccc(C(=O)NCc3ccc(OC(C)C)cc3)o2)cc1` (centres undefined), for which the cell number change was -4.62%. Under setting [2], the AC50 is 0.411 µM [falling, partial curve, poor fit].
On to `O=C(CSCc1cccc(Cl)c1)N/N=C/c1ccc(OCC(=O)N2CCCCC2)cc1`, for which the cell number change was -1.44%. Also, the AC50 under setting [2] was 18.4 µM [falling, single point].
Consider `CCOc1ccc(S(=O)(=O)NC2CC2)cc1`, for which the cell number change is -5.47%. Besides, the AC50 under setting [2] was 4.61 µM [rising, full curve].
For the molecule `COC(=O)c1cc(=O)n(Cc2ccc3c(c2)OCO3)c(=Nc2ccc(F)c(Cl)c2)s1`, the cell number change turned out to be 15.2%. The concentration at half-maximal activity (AC50) under setting [1] is 0.517 µM [rising, full curve, poor fit].
For `O=C(NC1CCN(S(=O)(=O)c2ccc(F)cc2)CC1)c1ccc(F)cc1`, the cell number change is -10.5%. The AC50 under setting [2] was 20.6 µM [rising, single point].
As to `CC[C@H](C)C(C(=O)N1CCN(C(=O)OC(C)(C)C)CC1)n1cc(C(Cc2ccc(O)cc2)NC(=O)OC(C)(C)C)nn1` (some centres undefined), the cell number change was -18.3%. Moreover, the AC50 under setting [2] was 29.1 µM [falling, single point].
With `CC(=O)C(C(c1ccccc1)c1c[nH]c2ccccc12)[N+](=O)[O-]` (centres undefined), the cell number change is -33.7%. Also, the AC50 under setting [1] is 32.6 µM [falling, single point]. Also, the AC50 under setting [2] was 29.1 µM [falling, single point].
Consider `COc1cc(Nc2ccc(S(N)(=O)=O)cc2)c([N+](=O)[O-])nc1[N+](=O)[O-]`, for which the cell number change amounted to 5.84%.
Take `CC(=O)C1C(c2cccc([N+](=O)[O-])c2)C2C(C)=NN=C2CC1(C)O` (centres undefined): the cell number change was determined as 6.91%.
With `COc1ccc(CCC(=O)NCc2ccccc2Cl)cc1OC`, the cell number change was found to be 20.4%. Further, the AC50 under setting [2] was 0.291 µM [rising, full curve, poor fit].
Take `CC(OC(=O)CNC(=O)c1ccc(Br)cc1)C(=O)NC1CCCCC1C` (centres undefined): the cell number change was -0.413%. For the same molecule, the AC50 under setting [2] was 0.411 µM [rising, full curve, poor fit].
Regarding `O=C(CSc1ncnc2c1cnn2Cc1ccccc1)Nc1ccc2c(c1)OCCO2`, the AC50 under setting [1] is 6.51 µM [rising, single point].
With `O=C(NCc1ccc2c(c1)OCO2)c1cc(S(=O)(=O)N2CCCCC2)ccc1F`, the cell number change was -25.4%.
Turning to `O=C(NCC(c1ccco1)N1CCc2ccccc2C1)C(=O)Nc1ccccc1F` (centres undefined), the cell number change is 1.01%. For the same molecule, the AC50 under setting [1] was 3.66 µM [rising, single point].
For `CCCn1ncc(C(=O)N(C)C2CCCN(Cc3ccccc3F)C2)c1C` (centres undefined), the cell number change was 1.13%. Moreover, under setting [2], the half-maximal activity concentration (AC50) is 5.17 µM [falling, single point].
`Cc1oncc1C(=O)NC1CCCCC1`: the cell number change was -5.88%. Besides, the AC50 under setting [2] was 0.411 µM [falling, single point].
On to `O=C(CCS(=O)(=O)c1ccccc1)Nc1ccc(N2CCN(Cc3ccccc3)CC2)cc1`, for which the cell number change was -13.7%. For the same molecule, under setting [2], the AC50 was 0.58 µM [rising, single point].
Consider `O=[N+]([O-])c1ccc(Cn2cc(-c3cccc(C(F)(F)F)c3)nn2)cc1`, for which the cell number change was 9.28%. Besides, the AC50 under setting [2] was 18.4 µM [falling, single point].
With `CC(=O)/C=C(\C)NCCNc1c(F)c(F)c(CO)c(F)c1F`, the cell number change amounted to 6.75%. The AC50 under setting [2] is 0.82 µM [rising, full curve, poor fit].
In the case of `Cc1cc(C)nc(SCC(=O)Nc2ccc(S(=O)(=O)Nc3onc(C)c3C)cc2)n1`, under setting [2], the AC50 was 4.11 µM [falling, single point].
For `O=C(Nc1ccc(Cl)cn1)Nc1cccs1`, the cell number change is -15.2%. In addition, the AC50 under setting [2] was 4.11 µM [rising, single point].
Take `COC(=O)c1ccc(Nc2ncnc3c2cnn3-c2cccc(C)c2)cc1`: the cell number change was found to be 16.2%. The AC50 under setting [2] was 0.651 µM [falling, full curve, poor fit].
Regarding `COc1ccc2cc([C@H](C)C(=O)N(C)Cc3ccccc3N3CCCC3)ccc2c1`, the cell number change came to 79%. Moreover, under setting [1], the AC50 was 18.4 µM [rising, partial curve, poor fit].
Consider `CN(CC(=O)Nc1ccc(Cl)c(C(F)(F)F)c1)C(=O)CNC(=O)C1CCCCC1`, for which the cell number change was -1.72%. Besides, the AC50 under setting [2] is 0.00517 µM [falling, full curve, poor fit].
For `COc1c([N+](=O)[O-])c(=O)n(-c2ccccc2)c2ccccc12`, the cell number change was -5.43%. Also, under setting [1], the AC50 was 0.00517 µM [falling, full curve, poor fit]. Moreover, the AC50 under setting [2] is 23.1 µM [rising, single point].
Consider `COc1ccc(OCc2nn3c(Cn4cnc5ccccc54)nnc3s2)cc1`, for which the cell number change was -18.2%. Under setting [2], the AC50 was 18.4 µM [rising, single point].
Turning to `C/C(=N\NC(=O)c1cccc(F)c1)c1cccc(NC(=O)c2ccc(F)cc2)c1`, the cell number change worked out at 18.3%. Besides, under setting [1], the AC50 was 7.31 µM [rising, partial curve]. The AC50 under setting [2] is 1.64 µM [rising, full curve, poor fit].
Take `Cc1nn(C(=O)c2nn(C)cc2Cl)c(C)c1Br`: the cell number change is -37.4%. Besides, the AC50 under setting [1] is 1.84 µM [falling, full curve, poor fit]. In addition, the AC50 under setting [2] was 3.26 µM [rising, partial curve].
In the case of `COc1cccc(NC(=O)c2cc(-c3cccnc3)nc3c(Cl)cccc23)c1`, the cell number change was found to be 5.14%.
As to `O=c1oc2c(CN3CCOCC3)c(O)c(Cl)cc2c2c1CCCC2`, the cell number change was 49.7%. For the same molecule, the AC50 under setting [1] was 32.6 µM [rising, single point].
Regarding `Cc1ccc2[nH]c(C(=O)NCCN3CCCC3)cc2c1`, the cell number change is -28%. For the same molecule, the AC50 under setting [2] was 18.4 µM [rising, single point].
Regarding `CCOc1ccccc1OCCCCOc1ccccc1F`, the cell number change came to 14.2%. Further, the AC50 under setting [2] is 8.2 µM [rising, partial curve].
For the molecule `COc1ccc(CN2CCN(Cc3c[nH]c4ccccc34)CC2CCO)c(F)c1` (centres undefined), the cell number change was -32%. The AC50 under setting [1] was 29.1 µM [falling, single point]. The AC50 under setting [2] was 29.1 µM [falling, partial curve, poor fit].
Regarding `CCOc1ccccc1NC(=O)NCCN1CCCCC1`, the cell number change came out at 2.47%. Also, the AC50 under setting [2] was 29.1 µM [rising, single point].
Take `C[C@H](NC(=O)c1cc2cc(Cl)ccc2n1C)C(=O)N1CCC(C(=O)O)CC1`: the cell number change stood at 20.1%. The concentration at half-maximal activity (AC50) under setting [2] is 14.6 µM [rising, partial curve, poor fit].
Regarding `Cc1ccc(-c2nn(-c3ccc(F)cc3)cc2C(=O)NC2CCC(O)CC2)cc1` (centres undefined), the cell number change turned out to be 38.4%. Also, the AC50 under setting [1] is 18.4 µM [rising, single point].
For the molecule `O=S(=O)(NCC1CC1)c1cc(Cl)cc(Cl)c1`, the AC50 under setting [1] is 0.184 µM [falling, full curve].
With `CCN1CCc2c(C#N)c(NCc3ccccc3)nc(NCCO)c2C1`, the cell number change was -19.6%.
In the case of `COc1ccc2nc(NC(=O)CSc3nnc(C)s3)sc2c1`, the cell number change was determined as 2.87%. Under setting [2], the AC50 was 6.51 µM [falling, single point].
With `COc1cc(Nc2nc(SCC#N)nc3ccccc23)cc(OC)c1OC`, the cell number change was -19.1%. The AC50 under setting [2] is 0.259 µM [falling, full curve, poor fit].
Consider `CCSc1ncc(C#N)c(N)n1`, for which the cell number change is -52.4%. For the same molecule, the AC50 under setting [1] was 23.1 µM [falling, single point].
`COc1ccc(CCN2CC(C(=O)N3CCC(O)(c4ccccc4)CC3)CCC2=O)cc1` (centres undefined): the cell number change is -4.4%. Moreover, the concentration at half-maximal activity (AC50) under setting [2] is 2.91 µM [rising, single point].
Regarding `Cc1cc(NC(=O)c2cccc(S(=O)(=O)Nc3cccc(C(=O)O)c3)c2)no1`, the cell number change turned out to be 24.8%. The AC50 under setting [2] is 0.58 µM [rising, single point].
In the case of `CN(Cc1ccccc1)C(=O)C1CCC(CNS(=O)(=O)c2cccc3cccnc23)CC1` (centres undefined), the cell number change was -7.68%.
On to `O=C(/C=C/c1cccc([N+](=O)[O-])c1)Nc1ccccc1N1CCOCC1`, for which the cell number change amounted to 14.3%. For the same molecule, the AC50 under setting [2] was 7.31 µM [rising, partial curve].
Take `O=C(Cc1ccc(Cl)cc1)NCCS(=O)(=O)N1CCN(c2ccccc2)CC1`: the cell number change was -8.46%. For the same molecule, under setting [2], the concentration at half-maximal activity (AC50) was 0.00461 µM [falling, full curve, poor fit].
With `O=C1C(Cl)=C(N2CCN(c3ccccc3[N+](=O)[O-])CC2)C(=O)c2ccccc21`, the cell number change was -45.9%. For the same molecule, the AC50 under setting [1] was 36.6 µM [falling, partial curve, poor fit]. Moreover, the AC50 under setting [2] was 25.9 µM [falling, partial curve, poor fit].
Regarding `CC12CCC(C1)C(C)(C)C2NS(=O)(=O)c1ccc(F)cc1` (centres undefined), the cell number change was -35.2%. For the same molecule, under setting [1], the AC50 was 14.6 µM [falling, single point].
Consider `CCCC(O)(c1ccc(OC)cc1)C(CN1CCOCC1)c1ccc(Cl)cc1` (centres undefined), for which the cell number change is -14.9%.
Turning to `CC(=O)N1CCN(C(=O)COC(=O)COc2c(C)cc(C)cc2C)CC1`, the cell number change is -32.2%. The AC50 under setting [2] is 6.51 µM [rising, single point].
